Some of the results follow.

Compound in this assay: C1=CC(=CC=C1C2=NC3=C(N2)C=C(C=C3)C(=O)N)OC4=CC=C(C=C4)Cl
Kind of assay: log2 fold change, soluble protein after heating vs DMSO (PISA); higher = thermal stabilisation; K562 lysate, 10 uM; active = over 0.2 and 3.5 SD of the protein, either way, in both replicates (recomputed). An outline of the steps:
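Soluble protein was defined as the supernatant remaining after 21,000xg for 90 min, following pooling of heated aliquots and adjustment to 0.5% NP-40 at 4°C. Before that, crude K562 extract at 1 mg/mL protein in PBS pH 7.4 with 1 mM MgCl2 was treated with 10 μM compound for 30 min and heated for 3 min across 48°C-58°C. Quantification used TMTpro 16plex LC-MS/MS with channel sums equalised, and values are log-two fold changes in thermal stability relative to solvent controls from duplicates.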
Consider USB1 (UniProt Q9BQ65), for which the log2 fold change was inactive: -0.08. As for UTP23 (UniProt Q9BRU9), the figure is inactive: 0.054; as for USP12 (UniProt O75317), inactive: 0.107; as for VGLL4 isoform 4 (UniProt Q14135), inactive: -0.015. As for UQCR10 (UniProt Q9UDW1), the figure is inactive: -0.05.

Take UTRN isoform 2 (UniProt P46939): the log2 fold change is inactive: 0.247.

In the case of UNG (UniProt P13051), the log2 fold change was inactive: -0.012.

As for UPF3A (UniProt Q9H1J1), the log2 fold change is inactive: -0.08. With USP30 (UniProt Q70CQ3), the log2 fold change is inactive: -0.026. As for UNC119 (UniProt Q13432), the figure is inactive: 0.015; as for URI1 isoform 4 (UniProt O94763), inactive: 0.06; as for VANGL2 (UniProt Q9ULK5), inactive: -0.013.

Turning to VCX3B (UniProt Q9H321), the log2 fold change is inactive: 0.036.

For VCPKMT (UniProt Q9H867), the log2 fold change was inactive: 0.164. Then USF3 (UniProt Q68DE3), with inactive: 0.02. As for ULK1 (UniProt O75385), the figure is inactive: -0.12; as for UNC13A (UniProt Q9UPW8), inactive: 0.039. As to VASN (UniProt Q6EMK4), the log2 fold change was inactive: 0.071. Then USP40 isoform 3 (UniProt Q9NVE5), with inactive: -0.024. Regarding VGF (UniProt O15240), the log2 fold change is inactive: 0.279. As for USP20 (UniProt Q9Y2K6), the figure is inactive: 0.01.
